Results as given in patent publication US10973820B2, “Compounds for treatment of diseases related to DUX4 expression” (Facio Intellectual Property B.V., priority 2017, dated 2021).

System: primary FSHD cells
Assay: myotube fusion / differentiation readout (fusion index) in primary FSHD myotubes
Type: cell-based, human
Description: A quantitative assay readout was developed based on script-based image analysis. […] To analyse the images, an automated script was developed, enabling the detection of nuclei, myotube borders and DUX4 signals, with the script also detecting artefacts to reduce false positive signals. The script enabled multiple validated readouts including the number of DUX4 positive nuclei and nuclei clusters, the fusion index, myotube area, myotube width and myotube skeleton length (see FIG. 2). Additionally, the total nuclei count was included as a measure of cell loss or compound toxicity.
A compound library containing approximately 5000 annotated compounds was screened in the high-content assay. For this purpose, primary myoblasts were seeded in 384 well plates after which the growth medium was replaced with differentiation medium. After 3 days of differentiation, cells were treated with library compounds (in duplicate on different screening plates) for 15 h, after which they were fixed and stained with antibodies against DUX4, antibodies against myosin heavy chain (MHC), and with DAPI (4′,6-diamidino-2-phenylindole). Script-based analysis provided readouts for DUX4 expression (count of DUX4-positive nuclei or DUX4 intensity) and for potential toxicity (fusion index and nuclei count). […]

For COc1ccc(CC(C)NCC(O)c2ccc(O)c(NC=O)c2)cc1 (stereo not shown) [formoterol], the “fusion process and differentiation of myoblasts into myotubes” value was “no myotube formation can be observed”.
